The record followed here is PubChem BioAssay (NCATS).

Sequences of proteins named here, by UniProt entry; tags and fusion partners are left off. A change or cut given only in a name is not applied to a line headed by its entry.
UniProt P50135: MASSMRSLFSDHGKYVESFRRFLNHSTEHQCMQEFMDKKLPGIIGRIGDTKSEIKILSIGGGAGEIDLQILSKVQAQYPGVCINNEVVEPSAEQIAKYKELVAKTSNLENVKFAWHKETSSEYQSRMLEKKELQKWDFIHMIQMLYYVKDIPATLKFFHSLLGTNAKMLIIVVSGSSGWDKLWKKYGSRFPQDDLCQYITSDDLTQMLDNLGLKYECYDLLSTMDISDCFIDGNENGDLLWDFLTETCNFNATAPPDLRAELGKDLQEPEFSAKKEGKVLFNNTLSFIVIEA

Experiment [1] in a line: Validation of Assay for Modulators of Lamin A Splicing (AID 1459). Conditions: Lamin A splicing dual RFP/GFP fluorescence reporter, ratio. The essentials:
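HeLa S3 lamin A-EGFP/DsRed2 stable clone, 600 cells/well, Opti-MEM 2% FBS; compounds by pin tool; 48 hrs, 37 °C/5% CO2; Acumen 488 nm scan, objects 10-100 um; GFP/RFP intensity ratio.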

Experiment [2] can be described thus: qHTS Assay for Modulators of Human Peripheral Myelin Protein 22 (PMP22) Expression/Activity (AID 1967). The settings on record: Cell-based PMP22 reporter, dual-color luciferase ratio. The essentials: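 Luminescence ratio of Pmp22 promoter-driven green luciferase to EF-alpha-driven red luciferase, in engineered mouse MSC80 Schwann cells, served as read-out. Compounds were incubated 24h; untreated cells defined 0% Activity; curves were classified by r2, magnitude and activity.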

Experiment [3] is described as follows: qHTS Validation Assay to Find Inhibitors of Chronic Active B-Cell Receptor Signaling (AID 485345). The settings on record: ABC-DLBCL cells, chronic BCR signaling reporter; measured here: CBR control luciferase (viability counter). An outline of the steps: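 TMD8 ABC-DLBCL cells stably carrying doxycycline-inducible IkappaBalpha–green luciferase fusion plus unfused red luciferase; compounds 46 uM to 3 nM, 4 h at 37C with doxycycline. Corrected green/red luminescence ratio normalized to 10 uM MG-132 and basal cell wells; curves fitted.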

Experiment [4] can be described thus: Nrf2 qHTS screen for inhibitors: Validation (AID 493153). The settings on record: A549 ARE-Fluc reporter, 18-24 h; AC50: CellTiter-Fluor fluorescence read, measured here: cytotoxicity CellTiter-Fluor AC50; viability change: measured here: cytotoxicity max response. An outline of the steps: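 A549 cells carrying ARE-firefly luciferase reporter, 5000 cells/well in 5% FBS OPTI-MEM, treated with compound over a concentration series for 18-24 h at 37 C. Luciferase luminescence gave Nrf2 activity; CellTiter-Fluor fluorescence gave viability.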

The nature of experiment [5]: A High-Content qHTS Against Drug Library for the Identification of Small Molecules that Inhibit DYT1 Early Onset Primary Dystonia-Associated Cell Pathology (AID 1645839). The settings on record: HEK293 Flp-In EGFP-delE TorsinA, punctate imaging, 48 h; measured here: cell count cytotoxicity. An outline of the steps:
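Flp-In T-REx 293 cells with tetracycline-inducible EGFP-delE hTOR1A (WT EGFP-hTOR1A as reference), 800 cells/well; compound added with tetracycline, 48 h at 37 C. Fixed, permeabilized cells imaged; %pathology (punctate TorsinA) primary, cell count counterscreen.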

For experiment [6], the target named is Histamine N-methyltransferase (Homo sapiens) (UniProt P50135). Kind of experiment: Confirmatory Screen for Target Class Profiling of Small Molecule Inhibitors of Methyltransferases (AID 1745852). The settings on record: MTase-Glo luminescence, SAH detection, recombinant enzyme; measured here: HNMT inhibition potency.
A short description of experiment [7]: qHTS drug screen for cell cycle checkpoint inhibitors in PARPi-resistant BRCA-mutant ovarian cancer cell lines. (AID 1963452). Conditions: PEO1/OlaR viability, CellTiter-Glo luminescence, 96 h. An outline of the steps: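 PEO1, PEO4 and PEO1/OlaR ovarian cancer cells, 600 per well, exposed 96 h at 37C to a dilution series. Viability read by CellTiter-Glo luminescence, normalized to DMSO and empty wells; activity summarized as Z-AUC.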

A short description of experiment [8]: Cell-based coincidence reporter assay to measure PMP22 gene transcription in S16 Pmp22-F2sN cells - Confirmatory screen (AID 1508646). The settings on record: S16 Schwann cells Pmp22-F2sN, dual luciferase, 24 h. An outline of the steps: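 S16 rat Schwann cells carrying FLuc-2A-NLuc reporter in Pmp22 3' UTR (500-1,000 cells/well) treated with pinned compounds for 24 h at 37C. Dual-luciferase reads: FLuc luminescence first, then NLuc after Stop&Glo.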

Experiment [9] can be described thus: S16 Schwann cell PMP22 intronic element beta-lactamase assay (AID 624044). Conditions: S16 rat Schwann cells, PMP22 element beta-lactamase FRET, 24 h; measured here: 460 nm blue channel. The essentials:
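Rat S16 Schwann cells with beta-Lac driven by a PMP22 intronic element, compound-treated 24 h at 37 °C. LiveBLAzer FRET B/G read: 460 nm normalized to potassium clavulanate vs DMSO; 535 nm FRET as viability; concentration-effect curves classified.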

Experiment [10] in a line: qHTS Assay for Lipid Storage Modulators (AID 1519). The settings on record: Drosophila S3 cells, BODIPY lipid droplet/cell ratio, laser cytometry, cells loaded with oleic acid. An outline of the steps: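 Cells seeded at 5,000 per well were treated with compounds over a concentration series and loaded with oleic acid (400 uM, as added). Lipid droplet fluorescence (488 nm excitation, 500-530 nm channel) was read by laser-scanning cytometry and normalized to 20 uM Triacsin C.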

Where [11] appears, read: measured here: green reporter channel AC50, mouse Pmp22 promoter in mouse Schwann cells.
Setting [12] is: measured here: red reporter channel AC50, EF-alpha promoter control reporter in MSC80 mouse Schwann cells.
Setting [13] is: measured here: FLuc reporter channel.
Setting [14] is: measured here: NLuc reporter channel.

“And” between values parts separate entries of the source, which are not always exact repeats. Equal entries are not always repeated. Some of the results follow. Shown are side measurements of this screen, not its main read-out; they come without a call. For some of these results: Most of these compounds were active or inconclusive in the main read-out, so they are no random draw. Potencies come from curve fits of mixed quality, noted in brackets.

Turning to `CCN(CC)CCCC(C)Nc1c2ccc(Cl)cc2nc2ccc(OC)cc12` (stereo not drawn), the AC50 is 25.1 µM [falling, single point] in experiment [1] (measured here: RFP channel); 33.8 µM [falling, full curve] in experiment [2] (setting [11]); 15.1 µM [falling, full curve] in experiment [2] (setting [12]); 6.51 µM [falling, partial curve] in [3]; 16.4 µM [falling, single point] in experiment [4]; 28.2 µM [falling, single point] in experiment [5]. For the same compound, the AC50 in experiment [7] (measured here: PEO1 parental viability) is 6.92 µM [falling, partial curve]; in experiment [7] (measured here: PEO4 viability), 6.16 µM [falling, partial curve]. For the same compound, in experiment [4], the viability change is -45.9%. Moreover, the IC50 in [6] is 17.2 µM [falling, partial curve] and 5.27 µM [falling, partial curve].

As for `CCCC(C(=O)OCCN(CC)CC)(c1ccccc1)c1ccccc1`, the AC50 in experiment [1] (measured here: RFP channel) was 11.2 µM [falling, partial curve, poor fit]; in [2] (setting [11]) it was 42.6 µM [falling, full curve]; in experiment [2] (setting [12]), 42.6 µM [falling, full curve]; in experiment [3], 18.4 µM [falling, single point]; in experiment [5], 17.8 µM [falling, partial curve, poor fit].

As to `CCc1ccc(Nc2nc3c(S(=O)(=O)c4ccc(C)cc4)nnn3c3ccsc23)cc1`, the AC50 in [8] (setting [13]) is 43.2 µM [falling, single point].

`O=C(c1ccc2c(c1)N(Cc1ccc(F)cc1)C(=O)c1ccccc1S2(=O)=O)N1CCN(c2ccccn2)CC1`: the AC50 in experiment [8] (setting [14]) is 27.3 µM [falling, partial curve].

On to `COc1ccc2c(c1)c(CC(=O)O)c(C)n2Cc1ccc(Cl)cc1`, for which the AC50 is 25.1 µM [rising, partial curve, poor fit] in experiment [1] (measured here: GFP channel); 5.36 µM [rising, full curve, poor fit] in experiment [2] (setting [11]); 75.7 µM [falling, partial curve, poor fit] in experiment [2] (setting [12]). Further, the viability change in experiment [4] is 1.29%.

For `CNCCCC1c2ccccc2C=Cc2ccccc21`, the AC50 in experiment [1] (measured here: GFP channel) is 17.8 µM [falling, single point]; in [2] (setting [11]), 23.9 µM [falling, full curve]; in experiment [2] (setting [12]), 30.1 µM [falling, full curve]; in experiment [9], 10.7 µM [falling, single point]; in experiment [5] it was 3.55 µM [falling, full curve].

On to `Cc1ccc(C)n1-c1nnc(N2CCCC(C(=O)Nc3ccccc3Br)C2)s1` (stereo not drawn), for which the AC50 in [8] (setting [14]) was 27.3 µM [falling, single point].

For the compound `CSc1ccc(C(=O)c2[nH]c(=O)[nH]c2C)cc1`, the AC50 is 3.98 µM [rising, full curve] in experiment [1] (measured here: GFP channel); 0.00316 µM [falling, full curve, poor fit] in experiment [10] (measured here: cell number channel AC50); 84.9 µM [falling, single point] in experiment [2] (setting [12]). Besides, the max response in [10] (measured here: cell count channel max response) was -1.43%; in [10] (measured here: lipid channel max response) it was 1.37%.

As to `Nc1ncnc2c1nc(Br)n2C1O[C@H]2COP(=O)(O)O[C@@H]2C1O` (stereo partly drawn), the AC50 in experiment [1] (measured here: GFP channel) was 4.47 µM [rising, partial curve]; in [2] (setting [12]) it was 42.6 µM [falling, partial curve, poor fit].

Take `CCOc1ccc(-c2nc(CSCC(=O)NCCc3ccccc3)c(C)o2)cc1`: in experiment [8] (setting [13]), the AC50 is 1.93 µM [falling, full curve].

`Cc1ccc(-c2csc(-c3cc4c([nH]c3=O)CC(c3ccccc3)CC4=O)n2)cc1` (stereo not drawn): the AC50 in experiment [8] (setting [14]) is 4.32 µM [falling, full curve].

Turning to `CCOc1ccccc1NC(=O)CSc1nc2c(oc3ccccc32)c(=O)n1Cc1ccco1`, in [8] (setting [14]), the half-maximal activity concentration (AC50) was 9.68 µM [falling, partial curve, poor fit].

On to `CCC(=O)N1CCc2cc(Br)cc(S(=O)(=O)N3CCCC(C(=O)NCc4cccc(OC)c4)C3)c21` (stereo not drawn), for which the AC50 in experiment [8] (setting [13]) was 24.3 µM [falling, partial curve, poor fit].

With `CCOc1ccc(-n2ccnc2SCC(=O)Nc2nc3ccc(C)cc3s2)cc1`, the AC50 in experiment [8] (setting [14]) is 3.43 µM [falling, full curve, poor fit].

As to `O=C(CSc1nc2nccnc2c(=O)n1CCc1c[nH]c2ccccc12)Nc1ccc(F)cc1`, the AC50 in experiment [8] (setting [13]) was 15.3 µM [falling, partial curve, poor fit].

As for `Cc1ccc(NC(=O)CSc2nc(-c3ccco3)cc(C(F)(F)F)n2)cc1`, the AC50 in [8] (setting [14]) was 7.69 µM [falling, partial curve, poor fit].

For the compound `CCc1ccc(NC(=O)CN2CCSc3ccc(S(=O)(=O)N4CCCC4)cc32)cc1`, the AC50 in [8] (setting [13]) was 7.69 µM [falling, full curve].

For `CCOC(=O)N1CCN(Cc2nc3cc(NC(=O)c4ccccc4[N+](=O)[O-])ccc3n2C(C)C)CC1`, the AC50 in experiment [8] (setting [14]) is 10.9 µM [falling, full curve, poor fit].
